From US20070237775A1 (Eli Lilly, published 2007)
Where a chain is given by its changes, count along the chain named. No constants are given. Whether binding was seen depends on the method and setting. Some entries that bind do so weakly or less than the wild type.

Key:
[1] = molecular target: T1, human ghrelin 1-27 (active analog) (human); assay: FLIPR calcium assay with active analogs
T1 sequence (peptide): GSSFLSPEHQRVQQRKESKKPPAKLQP

[2] = molecular target: T2, acylated rat ghrelin (full length, C8-acylated) (rat) (UniProt Q9QYH7); assay: ELISA, BIAcore and FLIPR assays
T2 sequence (peptide, C8 acyl group at amino acid 3, looked up): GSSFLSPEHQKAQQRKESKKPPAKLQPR

[3] = molecular target: T3, des-acyl rat ghrelin (full length) (rat) (UniProt Q9QYH7); assay: ELISA, BIAcore and FLIPR assays
T3 sequence (peptide, looked up): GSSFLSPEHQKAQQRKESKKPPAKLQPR

[4] = molecular target: T4, des-acyl human ghrelin (full length) (human); assay: ELISA, BIAcore and FLIPR assays
T4 sequence (peptide): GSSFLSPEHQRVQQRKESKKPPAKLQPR

[5] = molecular target: T5, acylated human ghrelin (full length, amino acids 1-28, C8-acylated) (human); assay: ELISA, BIAcore and FLIPR assays
T5 sequence (peptide, n-octanoyl (C8) acyl group on the serine at position 3): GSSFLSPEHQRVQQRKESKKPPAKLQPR

Measured: binding

B1: Fab 3281 (Fab, V domains shown)
VH: QVQLQQSRAELAKPGASVKMSCKASGYTFTSYWMHWVKQGPGQGLEWIGYINPSTGYTEYTQKFKDKATLTADKSSSTAYMQLSSLTSEDSAVYYCATDGYDEDYWGQGTTLTVSS
VL: DAVMTQIPLTLSVTIGQPASISCRSSQSLGHSNGNTYLHWYLQKPGQSPKLLIYKVSNRFSGVPDRFSGSGSGTDFTLKISRVEAEDLGTYFCSQSTLVPWTFGGGTKLEIKR
notes: Murine Fab from an Omniclonal antibody library (immunized C57/Bl6 mice); kappa light chain (captured and detected with goat anti-mouse kappa)
binds: [1] | [2] | [3] | [4] | [5]

B2: Fab 4731 (Fab, V domains shown)
VH: B1 VH
VL: B1 VL with A2V, I7T, T10S, S12P, T14S, I15L, Q17D, P18Q, G30V
notes: Murine Fab, kappa light chain
binds: [1] | [2] | [3] | [4] | [5]

B3: Fab 4281 (Fab, V domains shown)
VH: QVQLQQSRAELAKPGASVKMSCKASGYTFTSYWIHWIKQRPGQGLEWIGYIDPGIGNIEYNQKFQDKATLTADKSSSIVYMQLNRLTSEDSAVYYCATDGYDEDYWGQGTTLTVSS
VL: B1 VL with A2V, I7T, T10S, S12P, T14S, I15L, Q17D, P18Q, G30V
notes: Murine Fab, kappa light chain
binds: [1] | [2] | [3] | [4] | [5]
